From patent US7241721B2, “Biphenyl derivatives and their use as fungicides” (Syngenta Crop Protection, Inc., priority 2002, dated 2007)
Some of these results come from one statement about several compounds together. Some ranges recur; such a range may be that of the whole group of compounds.

Assays:
Assay type in all cases: in vivo
[1] = test system: Puccinia recondita; test: Action against Puccinia recondita/wheat (brownrust on wheat); details: wheat cv. Arina, 0.02% active ingredient sprayed 1 day before inoculation, assessed 10 days after inoculation
[2] = test system: Helminthosporium teres; test: Action against Helminthosporium teres/barley (net blotch on barley); details: barley cv. Regina, 0.02% active ingredient sprayed 2 days before inoculation, assessed after 4 days incubation
[3] = test system: Podosphaera leucotricha; test: Action against Podosphaera leucotricha/apple (powdery mildew on apple); details: apple seedlings cv. McIntosh, 0.02% active ingredient sprayed 1 day before inoculation, assessed after 12 days incubation
[4] = test system: Alternaria solani; test: Action against Alternaria solani/tomato (early blight on tomatoes); details: tomato cv. Roter Gnom, 0.02% active ingredient sprayed 2 days before inoculation, assessed after 3 days incubation

Measured: infestation (disease incidence)

Cn1cc(C(=O)Nc2ccccc2-c2cccc(C#CC(C)(C)C)c2)c(C(F)(F)F)n1 [Compound 15.25]
0-5 % infestation: [1] | [2] | [3]

Cn1cc(C(=O)Nc2ccccc2-c2cccc(C#CC(C)(C)C)c2)c(C(F)F)n1 [Compound 15.26]
0-5 % infestation: all assays above

CC(C)(C)C#Cc1cccc(-c2ccccc2NC(=O)c2cccnc2Cl)c1 [Compound 15.28]
0-5 % infestation: [1] | [2] | [3]
